Assay results taken from US20150291675A1 (published 2015).
Positions count from the first letter of the chain named. No constants are given. Whether binding was seen depends on the method and setting. Some entries that bind do so weakly or less than the wild type.

T1: cynomolgus Hepcidin-25 (cynomolgus) (UniProt A7XEI3)
T1 sequence (peptide): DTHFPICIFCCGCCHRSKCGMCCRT

B1: lipocalin mutein of SEQ ID NO: 4 (designed binder)
chain: QDSTSDLIPAPPLSKVPLQQNFQDNQFHGKWYVVGVAGNEMLREDKDPLKMLATIYELKEDKSYNVTRVMFEYKKCVYLIETFVPGSQPGEFTLGTIKSVPGLTSGLVRVVSTNYNQHAMVFFKRVWQNREVFWITLYGRTKELTSELKENFIRFSKSLGLPENHIVFPVPIDQCIDG
notes: Purified with C-terminal Strep-tag II; also called hNGAL mutein; Lcn2 mutein; not shown: C-terminal Strep-tag II encoded by phNGAL98
B2: lipocalin mutein of SEQ ID NO: 6 (designed binder)
chain: QDSTSDLIPAPPLSKVPLQQNFQDNQFHGKWYVVGLAGNEILREDKDPLKMWATIYELKEDKSYNVTRVQFGEKKCGYGIETFVPGSQPGEFTLGSIKSVPGGTSRLVRVVSTNYNQHAMVFFKFVWQNREVFWITLYGRTKELTSELKENFIRFSKSLGLPENHIVFPVPIDQCIDG
notes: as for B1
B3: lipocalin mutein of SEQ ID NO: 7 (designed binder)
chain: QDSTSDLIPAPPLSKVPLQQNFQDNQFHGKWYVVGLAGNRVLREDKDPQKMFATIYELKEDKSYNVTGVDFRTKKCLYSIGTFVPGSQPGEFTLGVIKSQPGWTSYLVRVVSTNYNQHAMVFFKTVWQNREVFWITLYGRTKELTSELKENFIRFSKSLGLPENHIVFPVPIDQCIDG
notes: as for B1
B4: lipocalin mutein of SEQ ID NO: 1, linked to albumine-binding domain (ABD) (SEQ ID NO: 15) (designed binder)
chain: QDSTSDLIPAPPLSKVPLQQNFQDNQFHGKWYVVGLAGNEVLREDKDPMKMWATIYELEEDKSYNVTIVMFLAKKCEYLFQTFVPGSQPGEFTLGDIKSSPGRTSGLVRVVSTNYNQHAMVFFKVVWQNREVFWITLYGRTKELTSELKENFIRFSKSLGLPENHIVFPVPIDQCIDGSAGAVDANSLAEAKVLANRELDKYGVSDYYKNLINNAKTVEGVKALIDEILAALPSAWSHPQFEK
B5: lipocalin mutein of SEQ ID NO: 3 (designed binder)
chain: QDSTSDLIPAPPLSKVPLQQNFQDNQFHGKWYVVGVAGNGLLREDKDPLKMHATIYELKEDKSYNVTRVLFVRKKCRYYISTFVPGSQPGEFTLGRIKSEPGRTSFLVRVVSTNYNQHAMVFFKMVWQNREVFWITLYGRTKELTSELKENFIRFSKSLGLPENHIVFPVPIDQCIDG
notes: as for B1
B6: lipocalin mutein of SEQ ID NO: 1 (designed binder)
chain: QDSTSDLIPAPPLSKVPLQQNFQDNQFHGKWYVVGLAGNEVLREDKDPMKMWATIYELEEDKSYNVTIVMFLAKKCEYLFQTFVPGSQPGEFTLGDIKSSPGRTSGLVRVVSTNYNQHAMVFFKTVWQNREVFWITLYGRTKELTSELKENFIRFSKSLGLPENHIVFPVPIDQCIDG
notes: also called hNGAL mutein; Lcn2 mutein; not shown: C-terminal Strep-tag II encoded by phNGAL98
B7: lipocalin mutein of SEQ ID NO: 14, linked to PEG40 (designed binder, not shown: small tags and cut ends)
chain: B6 chain with S87C
modifications: branched 40 k PEG-maleimide on the free Cys at position 87
B8: lipocalin mutein of SEQ ID NO: 13, linked to PEG40 (designed binder, not shown: small tags and cut ends)
chain: B6 chain with E59K, F71P, K74E, S87C, D96G, S100G, T125V, I135V
modifications: branched 40 k PEG-maleimide on the free Cys at position 87
B9: lipocalin mutein of SEQ ID NO: 9 (designed binder)
chain: B6 chain with E59K, F71S, T125V, E147G
notes: as for B1
B10: lipocalin mutein of SEQ ID NO: 11 (designed binder)
chain: B6 chain with V41I, E59K, T125V, E147G
notes: as for B1
B11: lipocalin mutein of SEQ ID NO: 8 (designed binder)
chain: B6 chain with E59K, F71P, K74E, D96G, S100G, T125V, I135V
notes: as for B1
B12: lipocalin mutein of SEQ ID NO: 12 (designed binder)
chain: B6 chain with E59K, K74E, K75E, T125V, E150K
notes: as for B1
B13: lipocalin mutein of SEQ ID NO: 10 (designed binder)
chain: QDSTSDLIPAPPLSKVPLQQNFQDNQFHGKWYVVGLAGNEILREDKDPMKMWATIYELKEDRSYNVTIVMFLAKKCEYLFQTFVPGSQPGEFTLGDIKSSPGRTSGLVRVVSTNYNQHAMVFFKVVWQNREVFWITLYGRTKELTPELKENFIRFSKSLGLPENHIVFPVPIDQCIDGF
notes: as for B1
B14: lipocalin mutein of SEQ ID NO: 2 (designed binder)
chain: QDSTSDLIPAPPLSKVPLQQNFQDNQFHGKWYVVGTAGNSILREDKDPQKMWATIYELKEDKSYNVTRVFFEGKKCRYVIETFVPGSQPGEFTLGKIKSAPGGTSILVRVVSTNYNQHAMVFFKVVWQNRELFWITLYGRTKELTSELKENFIRFSKSLGLPENHIVFPVPIDQCIDG
notes: as for B1
B15: lipocalin mutein of SEQ ID NO: 5 (designed binder)
chain: QDSTSDLIPAPPLSKVPLQQNFQDNQFHGKWYVVGAAGNSLLREDKDPMKMWATIYELKEDKSYNVTRVNFGGKKCSYLIETFVPGSQPGEFTLGSIKSRPGATSVLVRVVSTNYNQHAMVFFKLVTQNREVFWITLYGRTKELTSELKENFIRFSKSLGLPENHIVFPVPIDQCIDG
notes: as for B1

Biological target: T1, cynomolgus Hepcidin-25 (cynomolgus)
Assay: direct ELISA, hepcidin captured via Neutravidin

binding | Binder
binds | B1
binds | B2
binds | B3
binds | B4
binds | B5
binds | B7
binds | B8
binds | B9
binds | B10
binds | B11
binds | B12
binds | B13
binds | B14
binds | B15

Binder | binding
B6 | binds

Biological target: lipocalin mutein of SEQ ID NO: 1, linked to albumine-binding domain (ABD) (SEQ ID NO: 15)
Assay: competition ELISA, non-biotinylated human hepcidin titrated against constant mutein; compared with SEQ ID NO: 1

binding | Binder
binds | DTHFPICIFCCGCCHRSKCGMCCKT [synthetic non-modified human Hepcidin-25]
